According to the supplement of paper PMC4635364:
Where a name gives a salt, the structure may show the parent alone. This is one part of the list. Single values are uncertain here, since repeats match poorly.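 Human fetal ventral-midbrain neural progenitor line ReNCell VM, differentiated without mitogens. Images stained for doublecortin (early neurons) or tyrosine hydroxylase (dopaminergic neurons) were scored by blinded raters against untreated wells (0 = no change). Repeats and both raters were averaged, and compounds averaging 2 or higher were picked as hits for retesting.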

Assays:
[1] = tested on: ReNCell VM; assay: neuronal differentiation score (DCX+ cell fraction vs untreated, manual image score) (score (-3 to 3)); higher = more neuronal differentiation; conditions: 2 uM, 2 weeks
[2] = tested on: ReNCell VM; assay: dopaminergic neuron differentiation score (TH+ cell fraction vs untreated, manual image score) (score (0 to 3)); higher = more TH+ dopaminergic neuron differentiation; conditions: 2 uM, 4 weeks, BDNF 10 ng/ml + GDNF 10 ng/ml

Compound | neuronal differentiation score ([1]; library: LOPAC) | neuronal differentiation score ([1]; library: Prestwick) | neuronal differentiation score ([1]; library: Tocriscreen) | dopaminergic neuron differentiation score ([2]; library: LOPAC) | dopaminergic neuron differentiation score ([2]; library: Prestwick) | dopaminergic neuron differentiation score ([2]; library: Tocriscreen) | neuronal differentiation score ([1]; library: Phytochemical) | dopaminergic neuron differentiation score ([2]; library: Phytochemical) | neuronal differentiation score ([1]; library: Spectrum) | dopaminergic neuron differentiation score ([2]; library: Spectrum)
CNCCCC12CCC(c3ccccc31)c1ccccc12 [Maprotiline hydrochloride] | inactive: 0 | inactive: 0 | inactive: 0 | inactive: 0 | inactive: 0 | inactive: 0 | – | – | – | –
CC1(C)NC(=O)N(c2ccc([N+](=O)[O-])c(C(F)(F)F)c2)C1=O [Nilutamide] | inactive: 0 | inactive: 0 | inactive: 0 | inactive: 0 | inactive: 0 | inactive: 0 | – | – | – | –
Nc1cc(N2CCCCC2)nc(N)[n+]1[O-] [Minoxidil] | inactive: 0 | inactive: 1 | inactive: 0 | inactive: 0 | inactive: 0 | inactive: 0 | – | – | – | –
O=C1CCc2cc(OCCCCc3nnnn3C3CCCCC3)ccc2N1 [Cilostazol] | inactive: 0 | inactive: 0 | inactive: 0 | inactive: 0 | active: 3 | inactive: 0 | – | – | – | –
Fc1ccc(C(c2ccc(F)cc2)N2CCN(C/C=C/c3ccccc3)CC2)cc1 [Flunarizine dihydrochloride] | inactive: -1 | inactive: 0 | inactive: 0 | inactive: 0 | inactive: 0 | inactive: 0 | – | – | – | –
N=C(N)N/N=C/c1c(Cl)cccc1Cl [Guanabenz acetate] | inactive: 0 | inactive: 0 | inactive: 0 | inactive: 0 | inactive: 0 | inactive: 0 | – | – | – | –
CC(C)(Oc1ccc(Cl)cc1)C(=O)O [Clofibric acid] | – | inactive: 0 | inactive: 0 | – | inactive: 0 | inactive: 0 | – | – | – | –
N=C(N)NC(=O)Cc1c(Cl)cccc1Cl [Guanfacine hydrochloride] | inactive: 0 | inactive: 0 | inactive: 1 | inactive: 0 | inactive: 0 | inactive: 0 | – | – | – | –
CN1CCC(=C2c3ccccc3CC(=O)c3sccc32)CC1 [Ketotifen fumarate] | inactive: 0 | inactive: 0 | inactive: 0 | inactive: 0 | inactive: 0 | inactive: 0 | – | – | – | –
COc1cc2nc(N3CCN(C(=O)C4CCCO4)CC3)nc(N)c2cc1OC (configuration not stated) [Terazosin hydrochloride] | inactive: 0 | inactive: 0 | inactive: 0 | inactive: 0 | inactive: 0 | inactive: 0 | – | – | – | –
CC(C)C(=O)c1c(C(C)C)nn2ccccc12 [Ibudilast] | inactive: 0 | inactive: 0 | inactive: 0 | inactive: 0 | inactive: 0 | inactive: 0 | – | – | – | –
CNC(=C[N+](=O)[O-])NCCSCc1ccc(CN(C)C)o1 [Ranitidine hydrochloride] | inactive: 0 | inactive: 0 | inactive: 0 | inactive: 0 | inactive: 0 | inactive: 0 | – | – | – | –
CN1CCC(=C2c3ccccc3C=Cc3ccccc32)CC1 [Cyproheptadine hydrochloride] | inactive: -1 | inactive: 0 | inactive: 0 | inactive: 0 | inactive: 0 | inactive: 0 | – | – | – | –
Oc1ccc(/C=C/c2cc(O)cc(O)c2)cc1 [Resveratrol] | inactive: 0 | – | inactive: 0 | inactive: 0 | – | inactive: 0 | inactive: 0 | inactive: 0 | – | –
COc1cc(-c2ccc(=O)[nH]n2)ccc1OC(F)F [Zardaverine] | inactive: 0 | inactive: 0 | active: 2 | inactive: 0 | inactive: 0 | inactive: 0 | – | – | – | –
COc1ccc2c(c1)c(CC(=O)O)c(C)n2C(=O)c1ccc(Cl)cc1 [Indomethacin] | inactive: 0 | inactive: 0 | inactive: 0 | inactive: 0 | inactive: 0 | inactive: 0 | – | – | – | –
CC(C)NCC(O)COc1cccc2[nH]ccc12 (configuration not stated) [Pindolol] | inactive: 0 | inactive: 0 | inactive: 0 | inactive: 0 | inactive: 0 | inactive: 1 | – | – | – | –
CC(=O)N1CCN(c2ccc(OCC3COC(Cn4ccnc4)(c4ccc(Cl)cc4Cl)O3)cc2)CC1 (configuration not stated) [Ketoconazole] | inactive: 0 | inactive: 0 | inactive: 0 | inactive: 0 | inactive: 0 | inactive: 0 | – | – | – | –
COc1ccc(C2CNC(=O)C2)cc1OC1CCCC1 (configuration not stated) [Rolipram] | inactive: 0 | inactive: 0 | inactive: 0 | inactive: 0 | inactive: 0 | inactive: 0 | – | – | – | –
O=C1CC2(CCCC2)CC(=O)N1CCCCN1CCN(c2ncccn2)CC1 [Buspirone hydrochloride] | inactive: 0 | inactive: 0 | inactive: 0 | inactive: 0 | inactive: 0 | inactive: 0 | – | – | – | –
CN1CCC[C@@H]1CCO[C@](C)(c1ccccc1)c1ccc(Cl)cc1 [Clemastine fumarate] | inactive: -1 | inactive: 0 | inactive: 0 | inactive: 0 | inactive: 0 | inactive: 0 | – | – | – | –
Cn1cnc2c1c(=O)[nH]c(=O)n2C [Theobromine] | inactive: 0 | inactive: 0 | – | inactive: 0 | inactive: 0 | – | inactive: 0 | inactive: 0 | – | –
COC(=O)Nc1nc2cc(C(=O)c3cccs3)ccc2[nH]1 [Nocodazole] | inactive: 0 | inactive: 0 | inactive: 0 | inactive: 0 | inactive: 0 | inactive: 0 | – | – | – | –
CCN(CC)CC(=O)Nc1c(C)cccc1C [Lidocaine hydrochloride] | inactive: 0 | inactive: 0 | – | inactive: 0 | inactive: 0 | – | – | – | – | –

Compound | neuronal differentiation score ([1]; library: LOPAC) | neuronal differentiation score ([1]; library: Prestwick) | neuronal differentiation score ([1]; library: Tocriscreen) | dopaminergic neuron differentiation score ([2]; library: LOPAC) | dopaminergic neuron differentiation score ([2]; library: Prestwick) | dopaminergic neuron differentiation score ([2]; library: Tocriscreen) | neuronal differentiation score ([1]; library: Phytochemical) | dopaminergic neuron differentiation score ([2]; library: Phytochemical) | neuronal differentiation score ([1]; library: Spectrum) | dopaminergic neuron differentiation score ([2]; library: Spectrum)
CN(C)CCC=C1c2ccccc2COc2ccccc21 [Doxepin hydrochloride] | inactive: 0 | inactive: 0 | inactive: 0 | inactive: 1 | inactive: 0 | inactive: 0 | – | – | – | –
COc1ccc2[nH]cc(CCNC(C)=O)c2c1 [Melatonin] | inactive: 0 | inactive: 0 | inactive: 0 | inactive: 0 | inactive: 0 | inactive: 0 | – | – | – | –
COC(=O)[C@H]1[C@H]2C[C@H]3c4[nH]c5ccccc5c4CCN3C[C@H]2CC[C@@H]1O [Rauwolscine hydrochloride] | inactive: 0 | – | inactive: 0 | inactive: 0 | – | inactive: 0 | inactive: 0 | inactive: 0 | – | –
CCN(Cc1ccncc1)C(=O)C(CO)c1ccccc1 (configuration not stated) [Tropicamide] | inactive: 0 | inactive: 0 | inactive: 0 | inactive: 0 | inactive: 0 | inactive: 0 | – | – | – | –
CNCCC(Oc1ccccc1OC)c1ccccc1 (configuration not stated) [Nisoxetine hydrochloride] | inactive: 0 | inactive: 0 | inactive: 0 | inactive: 0 | inactive: 0 | inactive: 0 | – | – | – | –
NC(=O)c1cccnc1 [Nicotinamide] | – | – | – | – | – | – | inactive: 0 | inactive: 0 | – | –
Cn1c(=O)c2[nH]cnc2n(C)c1=O [Aminophylline] | – | – | – | – | – | – | inactive: -1 | inactive: 0 | – | –
Cn1ccc2cc3c(cc21)CCN3C(=O)Nc1cccnc1 | inactive: 0 | – | inactive: -1 | inactive: 0 | – | inactive: 0 | – | – | – | –
COc1cc2c(cc1C(F)(F)F)N(C(=O)Nc1cc(F)cc(-c3cccnc3)c1)CC2 | inactive: 0 | – | inactive: -1 | inactive: 0 | – | inactive: 0 | – | – | – | –
CC(/C=C/c1cccc(Oc2ccc(F)cc2)c1)N(O)C(N)=O (configuration not stated) | active: 3 | – | inactive: 1 | inactive: 1 | – | inactive: 0 | – | – | – | –
Cn1cc(C2=C(c3ccc(Cl)cc3Cl)C(=O)NC2=O)c2ccccc21 | inactive: 0 | – | inactive: 0 | inactive: 0 | – | inactive: 0 | – | – | – | –
CCCN(CCC)C(=O)C(CCC(=O)O)NC(=O)c1ccccc1 (configuration not stated) [Proglumide] | inactive: 0 | inactive: 0 | – | inactive: 0 | inactive: 0 | – | – | – | – | –
COc1cccc2c1C(=O)c1c(O)c3c(c(O)c1C2=O)C[C@@](O)(C(=O)CO)C[C@@H]3O[C@H]1C[C@H](N)[C@H](O)[C@H](C)O1 [Doxorubicin hydrochloride] | – | inactive: 0 | inactive: 0 | – | inactive: 0 | inactive: 0 | – | – | – | –
CC(=O)NNC(=O)N1Cc2ccccc2Oc2ccc(Cl)cc21 | inactive: 1 | – | inactive: 0 | inactive: 0 | – | inactive: 0 | – | – | – | –
N=C(N)N1CCc2ccccc2C1 [Debrisoquin sulfate] | inactive: 0 | inactive: 0 | – | inactive: 0 | inactive: 0 | – | – | – | – | –
CC(=O)Nc1ccc(O)cc1 [Acetaminophen] | – | inactive: 0 | inactive: 0 | – | inactive: 0 | inactive: 0 | – | – | – | –
C#CCN1C(C)=C(C(=O)OC)C(c2cccc([N+](=O)[O-])c2)C(C(=O)OCC)=C1C (configuration not stated) | inactive: 0 | – | inactive: 0 | inactive: 0 | – | inactive: 0 | – | – | – | –
COC(=O)C1=C(C)NC(C)=C(C(=O)OCCN(C)Cc2ccccc2)C1c1cccc([N+](=O)[O-])c1 (configuration not stated) [Nicardipine hydrochloride] | inactive: 0 | inactive: 0 | – | inactive: 0 | inactive: 0 | – | – | – | – | –
CNC(=O)[C@H]1O[C@@H](n2cnc3c(NCc4cccc(I)c4)ncnc32)[C@H](O)[C@@H]1O | inactive: 0 | – | inactive: 0 | inactive: 0 | – | inactive: 0 | – | – | – | –
O=C1c2ccccc2S(=O)(=O)N1CCCCN1CCN(c2ncccn2)CC1 [Ipsapirone] | – | inactive: 0 | inactive: 0 | – | inactive: 0 | inactive: 0 | – | – | – | –
CCN(CC)CCNC(=O)c1ccc(N)cc1 [Procainamide hydrochloride] | inactive: 0 | inactive: 0 | – | inactive: 0 | inactive: 0 | – | – | – | – | –
CC1=NN(c2ccccc2)C(=O)C1 | – | – | inactive: 0 | – | – | inactive: 0 | – | – | inactive: 0 | inactive: 0
O=c1c(-c2ccc(O)cc2)coc2cc(O)ccc12 [Daidzein] | inactive: 0 | – | inactive: -1 | inactive: 0 | – | inactive: 0 | – | – | – | –
CCCCc1oc2ccccc2c1C(=O)c1cc(I)c(OCCN(CC)CC)c(I)c1 [Amiodarone hydrochloride] | inactive: 0 | inactive: 0 | – | inactive: 0 | inactive: 0 | – | – | – | – | –

An excerpt of these results, tab-delimited:
Compound	neuronal differentiation score ([1]; library: LOPAC)	neuronal differentiation score ([1]; library: Prestwick)	neuronal differentiation score ([1]; library: Tocriscreen)	dopaminergic neuron differentiation score ([2]; library: LOPAC)	dopaminergic neuron differentiation score ([2]; library: Prestwick)	dopaminergic neuron differentiation score ([2]; library: Tocriscreen)	neuronal differentiation score ([1]; library: Phytochemical)	dopaminergic neuron differentiation score ([2]; library: Phytochemical)	neuronal differentiation score ([1]; library: Spectrum)	dopaminergic neuron differentiation score ([2]; library: Spectrum)
COC(=O)C1=C(C)NC(C)=C(C(=O)OCCN(C)Cc2ccccc2)C1c1cccc([N+](=O)[O-])c1 (configuration not stated) [Nicardipine hydrochloride]	inactive: 0	inactive: 0	–	inactive: 0	inactive: 0	–	–	–	–	–
CC1=NN(c2ccccc2)C(=O)C1	–	–	inactive: 0	–	–	inactive: 0	–	–	inactive: 0	inactive: 0
